Reference: PubChem BioAssay AID1508600 (Functional Genomics Laboratory (NCATS/FGL), 2020)
Out of some 53,000 sequences screened, about 3,700 (7%) were called active.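 How the source made its calls: active means gene knockdowns whose robust z-score for IL-1 alpha signal is at least 2 or at most -2, so actives lie on both sides; inactive means the rest.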 This is one part of the list.

assay: Components of the Cytosolic LPS Sensing Pathway: Gene Identification via Genome-wide siRNA Screen; settings: RAW264.7 macrophages, IL-1a HTRF, actives lie on both sides, screened at 100 nM (by protocol), cells primed 5 h with Pam3CSK4 first;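 further: robust z of the log signal after scaling to non-targeting control siRNA wells of the plate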
Procedure, shortened: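 Cells (RAW264.7, 1×10^4 per well) were transfected with siRNA at 100 nM and cultured 48h at 37 degrees C. Pam3CSK4 was added for 5 hours; LipidA transfection followed for 24 hour. IL-1a was then measured by HTRF.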

Row | Sequence | z-score
1 | GGAUGUUUCUAACUCCUUUTT against N4bp3 | inactive: 1.46
2 | CCUUGGGACAAGCAUAUAUTT against Psg25 | inactive: 0.901
3 | CCAUCUGAUUAAUGGCUUCTT against Tm7sf2 | inactive: 1.03
4 | GGCUGUCUUAUUAAAGCUATT against A730013G03Rik | active: -2.19
5 | GGUGAUCAUGCUAACCUUUTT against Pcolce | inactive: 0.436
6 | GGCAGAAGUCAUCAACCAATT against Bcl2l12 | inactive: -0.0414
7 | GGCGUAUUUGUCAUUUCUUTT against Dis3l | inactive: 0.013
8 | CGAUGAAUCAGUGAGGCUGTT against Wdr18 | inactive: 0.139
9 | GGUCUUAGAAGAUUUUUCUTT against Adam21 | inactive: 1.1
10 | GCUUGGAUUGGUAACCUGUTT against Olfr167 | inactive: 0.939
11 | CCUGAAGAAAGAAUCCCUATT against Nobox | inactive: 0.241
12 | GGCCUGGAGGAGCUAUAUUTT against Nrl | inactive: 1.8
13 | GGCAUCCAGACAAGUGAUGTT against Zer1 | inactive: 0.699
14 | GCUGUUGUUUGCUAGCAAATT against Lipa | inactive: 0.973
15 | CCACAAAUACAAAUCUACCTT against Bloc1s3 | inactive: 0.989
16 | GGAAGAACAACGAAGAAACTT against Mtarc2 | inactive: -0.369
17 | CCUUCAGAAAGUUGUUGAATT against Commd5 | inactive: 0.635
18 | GGGAGAAGUAAGUGUUAUCTT against Npy2r | active: 3.86
19 | UAAAUACUUACCAGCUGGATT against Olfr1306 | inactive: 1.06
20 | GCAAAAUCUCAAAUUGCUCTT against Mdh1 | inactive: 1.91
21 | GGAAAGAAGAACCAAGCUCTT against Med6 | inactive: -1.01
22 | GGUUCCAGAUGAGAUGAUATT against Ubr7 | inactive: -1.8

Row | Sequence | z-score
23 | GGUACGCCCUCAUAUGUCATT against Lnpk | inactive: 0.729
24 | GGUGCCAUUGAUUCUGUAGTT against Smim10l2a | inactive: -0.807
25 | GCCAACUUUGGACCAUUAUTT against Otulin | inactive: 0.0891
26 | GCGAUUAAUGGCAUAGUUUTT against Sar1a | inactive: -0.773
27 | GGAUUAGACUGUCUUCAGCTT against Rnf144a | inactive: -0.496
28 | GGAGAGGAAUCAAGUGGUGTT against Lig1 | inactive: -1.04
29 | GCCUCAAGUAAAGUGGCUGTT against Furin | inactive: 0.487
30 | CCGUUCACUAAUAAAAGGUTT against BC052040 | inactive: 0.58
31 | GCCUGUGUAUUACUUUUUUTT against Sned1 | inactive: -0.786
32 | GGAUUGGCAAGCAGCUAACTT against Dnase2a | active: -2.08
33 | GCAAUAAUUUCUCACCUAGTT against Tcf3 | inactive: -1.48
34 | CCGGUAAUGAGUUCAAGUGTT against Arsa | inactive: 1.12
35 | CGAACUAGCAAUGUUUACUTT against Ptpn13 | inactive: 0.982
36 | GCGAGGUAUUUUCUUAGUATT against Yes1 | inactive: -0.00878
37 | GCCGAUGUAUGGAGUUUUCTT against Mei1 | inactive: 1.79
38 | CGGAGAGAUGGUGUGAACATT against Ik | inactive: -0.774
39 | GGGCUCAUUUUCACUGCUUTT against Atraid | inactive: 0.546
40 | GGACGACAGCAAAGGGAAGTT against Tnnc1 | inactive: -0.227
41 | GGAAUGUACUAGACCCGAGTT against Gstm2 | inactive: -0.204
42 | CGGCAAAAUUAGCUAUUCATT against Exosc4 | inactive: 0.489
43 | GGAGCCGAAAAAGAUGACCTT against Slu7 | inactive: -0.423
44 | GCAAUGUGUGGUAAGUAAATT against Zfp738 | inactive: -0.757

Row | Sequence | z-score
45 | CCAGCUUCAAGGAACAUGGTT against Fabp12 | inactive: -1.93
46 | GCUUGAUCAUGCAAUCUAUTT against Naa25 | inactive: 0.673
47 | GGAAGAAGUGAUAAAGAGATT against Nts | inactive: -0.314
48 | GGUGUGGUAUGCUUUCUCCTT against Ddx11 | inactive: -0.266
49 | GCACUGAAGCCUAGCUGUUTT against BC051142 | inactive: 1.41
50 | GGGUAAAAAGUUUGACAAGTT against Fam76b | inactive: 0.436
51 | CCCAAGAAUUGGAUUCCAGTT against Lta | inactive: -0.528
52 | GGUUCUGGAAGUGAAGGUGTT against Prg2 | inactive: -0.00973
53 | CCUGAUUCUUGUCAAAAACTT against Cdh12 | inactive: -0.22
54 | GGACUUCUACUCAGAAUUUTT against Nisch | inactive: 0.811
55 | CCAUGCGGUUGUUCAAGUATT against Taf7l | inactive: 0.54
56 | GGUGAAGCCAGUUCACGAATT against Gm5082 | inactive: -0.182
57 | GGAAUAUCCUGACUUCUGATT against 4931431C16Rik | inactive: -0.949
58 | GGAGUACAUUGUGAAUGUUTT against Tnr | inactive: -1.44
59 | GGAUACAAGAAACCUUAAGTT against Os9 | inactive: 1.09
60 | CCUACGACCUGAAGAUAGCTT against Dscc1 | inactive: -0.124
61 | CGACCAAAAUCAAAACAGCTT against Defb12 | inactive: -0.093
62 | GGAACGAAGUCUGAAACACTT against A730018C14Rik | inactive: -1.89
63 | GCAUUAGGAAUUCAAUUAGTT against Adamts1 | inactive: 0.813
64 | GCCAUUAUGCCGACGUGGATT against Slc38a2 | inactive: -0.636
65 | GGGUCGGGUUUCCUAAAGATT against Heatr5b | inactive: 0.643
66 | GGCAUUCUUAUAAAGAAACTT against Ube2q1 | inactive: 0.174

Row | Sequence | z-score
67 | CGGGUGUUUGAAUGAUUUCTT against Mrps27 | inactive: 0.856
68 | CCCGAAGUAGUCUUUAUCGTT against Pafah1b3 | inactive: -0.629
69 | GGAAGUGGCGAGGUUCUAUTT against Folr1 | inactive: 0.782
70 | GCCCUUCGCUUAGUCAGAATT against Rictor | inactive: 0.186
71 | GGGCAUCGUUUUCAUCUCATT against Wdr11 | inactive: 1.77
72 | GGAGUUUCCUAGUAAGGCCTT against Fam71b | inactive: 0.847
73 | GCUAAAGAUUGACAAAGCUTT against Uqcrc2 | inactive: -1.36
74 | GGUGCCCACUAACUUAGAATT against Tbx21 | active: 2.3
75 | GGACAAAAUACGUGAUAUUTT against Bco1 | inactive: 0.205
76 | GGUGAGAAGCCUUAUCAUUTT against Klf2 | inactive: -0.882
77 | GCAUAUUGCCUACUUCUUCTT against Olfr982 | inactive: -1.42
78 | GGUGAUACACUGUAAUCUGTT against Msra | inactive: 0.843
79 | GAGUUCAAGAAUGCUGUUUTT against Usp43 | inactive: -0.463
80 | GCAGCUAAACACCGAUAUGTT against Eid3 | inactive: 0.951
81 | GGGCAAAUAGUCAAUGACCTT against Ces1e | inactive: 0.661
82 | GCGAUGCUGCGUUCUGUUUTT against H1f10 | inactive: -0.0369
83 | GGAUCAUGUUAAACAAAGATT against Ccne1 | inactive: -0.366
84 | GGUCAAAUAUAUGCUUGGGTT against Rcbtb2 | inactive: -1.18
85 | GGCCCUAGAAAGGACACAGTT against Gm5094 | inactive: -1.4
86 | CGAUGGACGAGAAAUAUUUTT against 1700030K09Rik | inactive: -1.52
87 | GGAUCACUGACUUUGAAUUTT against Mob2 | inactive: -0.654
88 | GCAGGAUCUGCCUAAGUCGTT against Arl4c | inactive: 0.649

Look-ups from the entries so far:
In z-score, GGAAGUGGCGAGGUUCUAUTT against Folr1 reads inactive: 0.782
In z-score, GCAGGAUCUGCCUAAGUCGTT against Arl4c reads inactive: 0.649
In z-score, CGGGUGUUUGAAUGAUUUCTT against Mrps27 reads inactive: 0.856
In z-score, GCUAAAGAUUGACAAAGCUTT against Uqcrc2 reads inactive: -1.36

Remaining list, next part:

Row | Sequence | z-score
89 | GCCUUUCACUAUUGACAACTT against Aurkb | inactive: -1.29
90 | CCUUAACCUCCACUUUAUATT against Sdc2 | inactive: 0.391
91 | CCUUGACUCGUAAAUACUUTT against Ist1 | inactive: 0.962
92 | GGAUGUUGAAAUCAAUGGUTT against Cyp3a16 | inactive: 0.198
93 | GGCAAAAUCUCAUCAGUCCTT against Iqcc | inactive: -0.131
94 | GGAAGAGAUCAUCCAGCUGTT against Mafg | inactive: 1.73
95 | GGAGCCCUUGCUCUUUAACTT against Izumo1r | active: -2.23
96 | GGGUAGAAUCCAAGAAGCGTT against Hoxb3 | active: -2.08
97 | GCUCAUGUUGCACUGGAAATT against Ulbp1 | inactive: 1.22
98 | GGCUAUACCCUGAAAUAUUTT against Slitrk4 | inactive: -0.00892
99 | GGACCAAAAACCACUGUUUTT against Olfr355 | inactive: -0.7
100 | GACAAAAUGGGUUUUACCUTT against Olfr668 | inactive: -0.736
101 | GCACGCAGAAUUCUUCCGUTT against Large2 | inactive: 0.706
102 | GGACCUUUUAUCUGAAAUGTT against Papln | inactive: 1.54
103 | GGGACAUUAAACUAUUUCATT against Chchd3 | inactive: -0.515
104 | GGCUGAACUGAUCCUGUACTT against Kcnh3 | active: -2.22
105 | CCUCAAGUACUGUAAUCACTT against Atf2 | inactive: -0.287
106 | GGUAUUCGUUUCAUCUACATT against Hnrnph1 | inactive: 1.35
107 | GCCCAUAGUAAAUUUGUUATT against Zcchc12 | inactive: -0.159

Copied from above, nos. 104 to 106
Row | Sequence | z-score
104 | GGCUGAACUGAUCCUGUACTT against Kcnh3 | active: -2.22
105 | CCUCAAGUACUGUAAUCACTT against Atf2 | inactive: -0.287
106 | GGUAUUCGUUUCAUCUACATT against Hnrnph1 | inactive: 1.35
